From patent publication US20260079169A1, “VOLATILE ORGANIC COMPOUNDS AS MARKERS FOR CELLULAR COMMUNICATION” (Technion Research and Development Foundation Limited, priority 2020, published 2026)

Key:
[1] = system: different-cell pairs of BEAS-2B, A549, H1299, H1975 without physical contact under a mutual headspace; assay: VOCs headspace analysis (ITEX GC-MS) of different-cell pair co-culture headspace groups (Format-3), bulk cell samples; type: cell-based, human; settings: bulk 1 × 10^4 cell
[2] = system: A549, H1299, H1975 human lung cancer lines and BEAS-2B normal cell line, each cultured alone; assay: VOCs headspace analysis (ITEX GC-MS) of mono-culture groups (Format-1), bulk cell samples 1×10^4 cells; type: cell-based; settings: bulk 1 × 10^4 cell

SMILES | VOC level in headspace, area under curve (AUC) normalized by STD AUC ([1]; A + B (BEAS-2B + A549)) | VOC level in headspace, area under curve (AUC) normalized by STD AUC ([1]; A + C (BEAS-2B + H1299)) | VOC level in headspace, area under curve (AUC) normalized by STD AUC ([1]; A + D (BEAS-2B + H1975)) | VOC level in headspace, area under curve (AUC) normalized by STD AUC ([1]; B + C (A549 + H1299)) | VOC level in headspace, area under curve (AUC) normalized by STD AUC ([1]; B + D (A549 + H1975)) | VOC level in headspace, area under curve (AUC) normalized by STD AUC ([1]; C + D (H1299 + H1975)) | VOC level in headspace, area under curve (AUC) normalized by STD AUC ([2]; A (BEAS-2B) mono-culture) | VOC level in headspace, area under curve (AUC) normalized by STD AUC ([2]; B (A549) mono-culture) | VOC level in headspace, area under curve (AUC) normalized by STD AUC ([2]; C (H1299) mono-culture) | VOC level in headspace, area under curve (AUC) normalized by STD AUC ([2]; D (H1975) mono-culture)
CC=C(C)CCCC [VOC22] | 8.188 | 0 | 0 | 2.834 | 0 | 0 | 0 | 0 | 0 | 0
C=C(C)CC(C)CCC (stereo not shown) [VOC23] | 4.214 | 1.824 | 3.715 | 0 | 0 | 0 | 0 | 1.771 | 0 | 5.249
CCCCC(C)(CCC)CCCC [VOC24] | 3.154 | 4.104 | 9.877 | 0 | 8.236 | 2.95 | 1.728 | 0 | 0 | 8.902
CC(CC(C)(C)C)CC(C)(C)C [VOC25] | 2.599 | 0 | 0 | 3.879 | 9.241 | 2.6295 | 0 | 3.229 | 0 | 7.437
CCCC(C)CCC [VOC26] | 0 | 0 | 0 | 0 | 6.901 | 0 | 0 | 0 | 0 | 4.215
NC(=O)CF [VOC27] | 0 | 0 | 0 | 0 | 0 | 0 | 2.736 | 0 | 1.8542 | 0
COC(=O)C(OC)OC [VOC28] | 0 | 0 | 2.03 | 0 | 0 | 0 | 2.368 | 0 | 0 | 0
